# Screen size: about 580,000 compounds; about 6,100 (1.1%) were called active. The inconclusive results got no clear call from the source; some entries with a clear call stand among them for comparison. The call rests on the fitted dose curve; in most records, active means well fitted inhibition curve with a large enough effect; inconclusive means small, poorly fitted or top-dose-only effect, or another doubt; inactive means no such curve, though single readings can be large or run the other way. Where the call is inconclusive, the potency comes from a doubtful curve fit.
# Sequences of proteins named here, by UniProt entry; tags and fusion partners are left off. A change or cut given only in a name is not applied to a line headed by its entry.
# UniProt P18054: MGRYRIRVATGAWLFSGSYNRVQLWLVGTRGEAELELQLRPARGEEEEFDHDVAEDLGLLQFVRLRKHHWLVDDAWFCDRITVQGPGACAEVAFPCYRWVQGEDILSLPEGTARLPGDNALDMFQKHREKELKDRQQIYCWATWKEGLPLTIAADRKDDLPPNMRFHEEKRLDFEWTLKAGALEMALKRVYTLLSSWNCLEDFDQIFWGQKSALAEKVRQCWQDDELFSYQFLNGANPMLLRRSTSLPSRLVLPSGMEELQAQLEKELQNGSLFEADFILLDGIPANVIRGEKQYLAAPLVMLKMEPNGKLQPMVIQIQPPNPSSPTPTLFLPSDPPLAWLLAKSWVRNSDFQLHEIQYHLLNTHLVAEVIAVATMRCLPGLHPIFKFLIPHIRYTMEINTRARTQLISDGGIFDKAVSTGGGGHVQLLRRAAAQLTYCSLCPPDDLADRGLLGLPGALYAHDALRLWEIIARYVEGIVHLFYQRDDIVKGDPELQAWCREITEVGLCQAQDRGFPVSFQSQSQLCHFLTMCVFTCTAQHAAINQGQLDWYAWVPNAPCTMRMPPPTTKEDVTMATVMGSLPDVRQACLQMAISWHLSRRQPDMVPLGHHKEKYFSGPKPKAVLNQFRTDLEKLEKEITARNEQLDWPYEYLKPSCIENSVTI
# Molecular target: Polyunsaturated fatty acid lipoxygenase ALOX12 (Homo sapiens) (UniProt P18054)
# Assay: Primary qHTS assay for inhibitors of human arachidonate 12S-lipoxygenase (ALOX12): Round 2
# Conditions: purified 12hLO, xylenol orange hydroperoxide absorbance; activity change, negative = inhibition: at 108 µM (top of the series) unless noted
# In short: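 Hydroperoxide product was detected by ferrous iron/xylenol orange as the 573 to 405 nm absorbance ratio. Arachidonic acid at 40 uM (final) was turned over for 30 min at room temperature by 150 nM human 12hLO, pH 7.0 Hepes buffer, after 15 min compound preincubation.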
# On the % scale 0 is the no-effect control and ±100 the full control effect; potency means the concentration at half of the fitted maximal effect.
Structure (SMILES),Potency,"activity change, negative = inhibition"
CN(C)CCNC(=O)c1ccc(-c2cn3c(-c4ccc(Oc5ccccc5)cc4)cnc3cn2)cc1,"inconclusive: 100 µM [inhibitor, single point]",–
COc1ccc(Nc2ncnc3c2cnn3Cc2ccccc2)cc1,"inconclusive: 35.5 µM [inhibitor, partial curve]",–
CC(C)CCC(C)NC(=O)CCCNC(N)=O (stereo not drawn),–,inactive: 46.7%
OC(c1ccc(F)cc1)c1ncc(-c2ccc(Oc3ccccc3)cc2)[nH]1 (stereo not drawn),"inconclusive: 79.4 µM [inhibitor, single point]",–
CC(C)CCNC(=O)CSCc1coc(-c2ccc(Cl)cc2)n1,"inconclusive: 126 µM [inhibitor, single point]",–
Cc1cc(C2=NNC(=Nc3ccc(S(=O)(=O)N4CCOCC4)cc3)SC2)c(C)n1CC1CCCO1 (stereo not drawn),"inconclusive: 50.1 µM [inhibitor, partial curve, poor fit]",–
CCOc1ccc2nc(NC(=O)CCn3cccc3)sc2c1,"inconclusive: 100 µM [inhibitor, single point]",–
Cc1cccc(C)c1OCc1cc(C(=O)N(C)CCc2ccccn2)no1,"inconclusive: 50.1 µM [inhibitor, partial curve, poor fit]",–
CC[C@H]1CN(C(=O)c2ccccc2)CC[C@H]1CC(=O)NCc1ccc(F)cc1,–,inactive: 55.7% [at 176 µM]
O=C1NC[C@@H](CCCCN2C[C@H](Cc3ccc(O)cc3)N(CCc3ccc(O)cc3)C(=O)C2=O)N(CCc2ccccc2)C1=O,"inconclusive: 112 µM [inhibitor, single point]",–
C#C[C@]1(O)CC[C@H]2[C@@H]3CCC4=CC(=O)CC[C@@H]4[C@H]3CC[C@@]21C,–,inactive: 0.94%
Cc1cc2c(OCC(O)CNC(C)(C)C)cccc2[nH]1 (stereo not drawn),"inconclusive: 100 µM [inhibitor, partial curve, poor fit]",–
CN(C)CCCN(CC1CCOC(C)(C)C1)C(=O)c1ccco1 (stereo not drawn),"inconclusive: 44.7 µM [inhibitor, single point]",–
O=C1c2ccccc2C(=O)C1C(=O)C1CC1,"inconclusive: 44.7 µM [inhibitor, partial curve, poor fit]",–
COc1ccc(N(CC(=O)NCCSc2ccccn2)S(=O)(=O)c2ccccc2)cc1OC,–,inactive: -3.3%
CN1CCC(N2CCN(c3cccc(C(F)(F)F)c3)CC2)CC1,"inconclusive: 15.8 µM [inhibitor, full curve]",–
COc1cc(CN2CCN(Cc3cccc(OC)c3OC)CC2)cc(OC)c1,"inconclusive: 0.1 µM [inhibitor, full curve, poor fit]",–
Cn1c(-c2cccc(Br)c2)cnc1NCc1ccccc1O,active: 14.1 µM,–

# One compound at a time, from the list above.
# `CC(C)CCNC(=O)CSCc1coc(-c2ccc(Cl)cc2)n1` is entered as Potency: inconclusive: 126 µM [inhibitor, single point]
# `COc1ccc(Nc2ncnc3c2cnn3Cc2ccccc2)cc1` is entered as Potency: inconclusive: 35.5 µM [inhibitor, partial curve]

# From PubChem BioAssay AID1671190 (National Center for Advancing Translational Sciences (NCATS), 2021)
